Measurements published in PubChem BioAssay AID1488 (Vanderbilt High Throughput Screening Facility, 2009).
Out of some 1,700 compounds screened, about 310 (18%) were called active. The shares of active, inactive and inconclusive entries below differ from those in the screen.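 How the source made its calls: active means fluorescence change differs from the solvent-only DMSO control mean at a set confidence level in both duplicate runs; inconclusive means differs from solvent-only control mean in just one of two runs; inactive means the rest.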

By UniProt entry, the sequences of proteins in these tests, tags left out. Where a name states a change or a piece, a line headed by the entry shows the natural chain unless it says otherwise.
UniProt P08482: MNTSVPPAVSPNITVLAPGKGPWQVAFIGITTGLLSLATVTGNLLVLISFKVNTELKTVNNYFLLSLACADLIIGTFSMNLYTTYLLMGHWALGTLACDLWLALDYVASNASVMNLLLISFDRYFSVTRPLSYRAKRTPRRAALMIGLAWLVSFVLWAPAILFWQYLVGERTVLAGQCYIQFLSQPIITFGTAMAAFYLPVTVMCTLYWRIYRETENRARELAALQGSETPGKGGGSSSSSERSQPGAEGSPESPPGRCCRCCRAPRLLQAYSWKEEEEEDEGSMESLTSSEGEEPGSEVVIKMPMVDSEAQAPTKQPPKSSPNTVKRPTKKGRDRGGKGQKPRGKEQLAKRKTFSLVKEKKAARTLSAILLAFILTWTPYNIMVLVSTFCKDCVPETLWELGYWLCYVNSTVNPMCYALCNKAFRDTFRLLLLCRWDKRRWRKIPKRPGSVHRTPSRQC

Molecular target: Muscarinic acetylcholine receptor M1 (Rattus norvegicus) (UniProt P08482)
Test: rat M1 muscarinic receptor agonists, confirmation, CHO-M1 cells, Fluo-4 calcium, duplicate retest (AID 1488);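 further: an EC20 dose of acetylcholine follows compound addition during the same imaging run; raw fluorescence intensity difference in instrument units with no normalization to controls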
Settings: Fluo-4 calcium fluorescence, agonist mode, at 10 µM, actives lie on both sides

Row | Compound | fluorescence change (max-min)
1 | Cc1ccccc1C(=O)N1CCN(c2ccc(NC(=O)c3ccco3)cc2Cl)CC1 | inconclusive: -22.2
2 | CCCCNC(=O)CC1Nc2ccccc2NC1=O (stereo unspecified) | inactive: 29.7
3 | CCCc1nc(SCC(=O)N2CCCc3ccccc32)c2c(=O)n(C)c(=O)n(C)c2n1 | inconclusive: -25.4
4 | Cc1cccc(N=c2oc3cc(O)ccc3cc2C(N)=O)c1 | inactive: 23.8
5 | CCOc1cccc(C(=O)Nc2cccc(-c3nc4ncccc4o3)c2C)c1 | inconclusive: -13.2
6 | COc1ccc(NC(=O)C2Cc3ccccc3CN2C(=O)c2ccccc2)cn1 (stereo unspecified) | inconclusive: 70.4
7 | O=C(c1ccco1)N1CCN(CC2CC3C=CC2C3)CC1 (stereo unspecified) | inconclusive: -22.7
8 | CCOc1ccc(CC(=O)NCc2cn3c(C)csc3n2)cc1 | inconclusive: -26.2
9 | COC(=O)c1ccc(CSc2nc3ccccc3c(=O)n2-c2cccc(OC)c2)o1 | inactive: -9.69
10 | CCOC(=O)C1CCN(c2nc3ccccc3nc2C(C#N)C(=O)OC(C)COC)CC1 (stereo unspecified) | inconclusive: -20.6
11 | Cc1ccc(S(=O)(=O)N2CCOCC2)cc1C(=O)Nc1ccc(-c2cn3ccsc3n2)cc1 | inactive: -8.11
12 | COc1cc(Nc2cc(C)nc3ncnn23)cc(OC)c1OC | inconclusive: -18.5
13 | Cc1ccccc1Cn1ccc(NC(=O)c2cnn3c(C(F)(F)F)cc(-c4ccco4)nc23)n1 | inconclusive: -23.8
14 | Cc1cccc(C(CC(=O)N2CCCC2)c2ccccc2)c1O (stereo unspecified) | inactive: 4.05
15 | CCOC(=O)C1CCCN(Cc2nc(N)nc(Nc3ccc(C)cc3)n2)C1 (stereo unspecified) | active: 127
16 | CC(=O)c1c(C)[nH]c(C(=O)NCCc2cccc(C)c2)c1C | inconclusive: -22.5
17 | COc1cccc2cc(-c3nc(-c4cccs4)cs3)c(=O)oc12 | inconclusive: 60.7
18 | CCOC(=O)C1CCN(C(=O)CSCc2nc(-c3ccc(OCC)cc3)oc2C)CC1 | inactive: -10.6
19 | CC(CN1CCOCC1)OC(=O)c1ccc(Br)cc1 (stereo unspecified) | inconclusive: -19.2
20 | Cc1ccccc1Nc1cc2ccccc2c(=O)[nH]1 | active: 64
21 | CCOn1c(=O)c(-c2ccc(OC)cc2)[n+]([O-])c2ccccc21 | inconclusive: -30.9
22 | Cc1ccc2c(c1)-c1c(cnn1CC(=O)N1CCCN(Cc3ccccc3F)C1)CO2 | inconclusive: -17
23 | Cc1cccc(NC(=O)c2oc3ccc(S(=O)(=O)N4CCOCC4)cc3c2C)c1C | inconclusive: -15.5

Arranged by SMILES length (largest number first): part of the list above
Row | Compound | fluorescence change (max-min)
3 | CCCc1nc(SCC(=O)N2CCCc3ccccc32)c2c(=O)n(C)c(=O)n(C)c2n1 | inconclusive: -25.4
18 | CCOC(=O)C1CCN(C(=O)CSCc2nc(-c3ccc(OCC)cc3)oc2C)CC1 | inactive: -10.6
16 | CC(=O)c1c(C)[nH]c(C(=O)NCCc2cccc(C)c2)c1C | inconclusive: -22.5
8 | CCOc1ccc(CC(=O)NCc2cn3c(C)csc3n2)cc1 | inconclusive: -26.2

The results go on:

Row | Compound | fluorescence change (max-min)
24 | CCc1nnc(NC(=O)c2ccc(N3C(=O)CCC3=O)cc2)s1 | inconclusive: 46.3
25 | CC1CCc2cccc3c2N1c1cc(C#N)c(C#N)cc1O3 (stereo unspecified) | inconclusive: -16
26 | O=C(c1ccco1)N1CCN(C(=O)c2cc(-c3ccccn3)nc3ccccc23)CC1 | inconclusive: -22.6
27 | O=C(OCc1nc2ccccc2s1)C1CCN(C2=NS(=O)(=O)c3ccccc32)CC1 | inconclusive: -20.7
28 | O=C(Nc1ccc(S(=O)(=O)N2CCCCC2)cc1)c1ccncc1 | active: -22.3
29 | Cc1ccc(-c2nnc(N3CCN(c4ccccn4)CC3)c3ccccc23)cc1 | inconclusive: -17.2
30 | CCOC(=O)c1cc2c(=O)n3ccccc3nc2n(C(C)C)c1=NC(=O)c1ccncc1 | inconclusive: -21
31 | CC(C)c1cc(=O)oc2c3c4c(cc12)CCCN4CCC3 | active: 612
32 | O=C(NCc1ccc2c(c1)OCO2)C1CCN(c2ccc(S(=O)(=O)N3CCCC3)cc2)CC1 | inactive: -13.6
33 | COC(=O)c1ccc2c(c1)N(Cc1ccccc1F)C(=O)c1ccccc1S2=O (stereo unspecified) | inconclusive: -14.3
34 | Cc1cc(=O)oc2ccc(OCC(=O)N(Cc3ccc(F)cc3)Cc3ccco3)cc12 | inconclusive: -19.6
35 | CC(=O)c1n[nH]nc1NC(=O)c1ccccc1 | inconclusive: -16.4
36 | Cc1cc(NC(=O)CSc2nnc(-c3ccoc3C)o2)no1 | inconclusive: -27.1
37 | Cc1occc1C(=O)NCc1ccccn1 | inactive: -2.78
38 | COc1cccc(=O)c2c(C)oc(C)c12 | active: 536
39 | CCCCN(CCCC)C(=O)CSc1nnc(-c2cc(OC)c(OC)c(OC)c2)o1 | inconclusive: -25.7
40 | Cn1c(C(=O)NC2CCCCCC2)cc2c(=O)n(C)c3ccccc3c21 | inconclusive: -21.7
41 | COc1ccc(C2=CC(c3ccc(Cl)cc3)n3cnnc3N2)cc1OC (stereo unspecified) | active: 223
42 | Cc1ccc(C2N(c3ccc(Cl)c(Cl)c3)C(=O)C3CCCN32)o1 (stereo unspecified) | inconclusive: -18.9
43 | CCCOc1nc2c(c(=O)n(C)c(=O)n2C)n1Cc1cccc2ccccc12 | inconclusive: -17.2
44 | CCOC(=O)Cc1nnc2c(Nc3ccccc3F)nc3nonc3n12 | inconclusive: -16.5
45 | CCOC(=O)c1nc(N2CCN(C(=O)OCC)CC2)c2c3c(sc2n1)CCCC3 | inconclusive: -32.5
46 | CCOC(=O)N1CCN(Cc2nc(-c3ccc(C)cc3)no2)CC1 | inactive: -4.89

Row | Compound | fluorescence change (max-min)
47 | COC(=O)COc1ccc(S(=O)(=O)NCc2ccncc2)cc1 | inactive: -18.3
48 | O=C1C2CC=C(Cl)CC2C(=O)N1CC1Cc2ccccc2CO1 (stereo unspecified) | inactive: 27.8
49 | Cn1c(C(=O)NC2CCCCC2)cc2c(=O)n(C)c3ccccc3c21 | inconclusive: -25
50 | CCOC(=O)N1CCN(C(=O)c2nn(-c3cc(OC)cc(OC)c3)c(=O)c3ccccc23)CC1 | inactive: -2.25
51 | COc1ccc(C(=O)NCCn2cc(SCC(=O)Nc3cc(C)on3)c3ccccc32)cc1OC | active: -26.6
52 | CCCCCCc1cc2cc(C(=O)NC)c(=N)oc2cc1O | active: 3190
53 | Cc1n[nH]c(C)c1S(=O)(=O)N(CC(=O)NC1CCCC1)c1ccc(C(C)C)cc1 | inactive: -19.1
54 | CN1CC=C2C(C#N)=C(N)C(C#N)(C#N)C(CCc3ccccc3)C2C1 (stereo unspecified) | active: 90.7
55 | CC(C)CCn1c(SCC(=O)OCn2nnc3ccccc3c2=O)nc2ccccc2c1=O | inactive: -10.7
56 | COc1cc(C(=O)Nc2nccs2)c(Br)c(OC)c1OC | inactive: -10.6
57 | Cn1c2ccc(Cl)cc2c2nc3ccccc3nc21 | inactive: 11.3
58 | Cc1cc(C)n2nc(C(=O)Nc3ccc4c(c3)OCO4)nc2n1 | inconclusive: -17.7
59 | CC(=O)N1CCc2c(sc(NC(=O)C3CC3)c2-c2nc3ccccc3s2)C1 | inactive: 11.2
60 | COc1ccc(OC)c(CCNC(=O)Cn2sc3nc(C)cc(C)c3c2=O)c1 | inconclusive: -20
61 | CSc1ccc(C2C(C#N)=C(N)Oc3c2ccc(=O)c2c(C)oc(C)c32)cc1 (stereo unspecified) | inactive: 15.4
62 | O=C(Cn1cc(C(=O)c2cccs2)c2ccccc21)NCc1cccs1 | inactive: -4.9
63 | Cc1ccc(C(=O)CC2(O)C(=O)N(Cc3ccc4c(c3)OCO4)c3ccccc32)cc1 (stereo unspecified) | inactive: -9.69
64 | O=C(CN1CCOCC1)Nc1scc(-c2ccccc2)c1C(=O)N1CCOCC1 | inconclusive: -13
65 | N#Cc1c(NC(=O)c2nc3ncccn3n2)sc2c1CCCCC2 | inconclusive: -14.6
66 | CCOC(=O)c1ccc(S(=O)(=O)Nc2ccccc2-c2nnn(CC)n2)cc1 | inconclusive: -21.8
67 | O=C(CC(NS(=O)(=O)c1ccc(Cl)cc1)c1ccco1)NCc1ccco1 (stereo unspecified) | inconclusive: -20.9
68 | CCc1c(C)nc2ncnn2c1N1CCCC(C(=O)NCc2ccco2)C1 (stereo unspecified) | inconclusive: -16.9
69 | O=C(Nc1ccccc1N1CCN(C(=O)c2ccc(Cl)cc2)CC1)c1ccc2c(c1)OCO2 | inactive: -25.7

Row | Compound | fluorescence change (max-min)
70 | CCOc1ccc2nc(N3CCCN(C(=O)Nc4ccccc4C)CC3)c(C#N)cc2c1 | active: 282
71 | Cc1ccc(CNC(=O)c2cc3c(=O)n4ccccc4nc3n(CC3CCCO3)c2=N)cc1 (stereo unspecified) | inactive: 22.2
72 | Cc1n[nH]c(C)c1N1C(=O)c2cccc3c(N4CCCCCC4)ccc(c23)C1=O | active: 2970
73 | CCCCCCOC(=O)C(C#N)c1nc2ccccc2nc1N1CCCCC1 (stereo unspecified) | inconclusive: 68.1
74 | COCCn1c(N)c(C(=O)NCC2CCCO2)c2nc3ccccc3nc21 (stereo unspecified) | active: -25.8
75 | CCCCn1c(SCC(=O)Nc2nnc(C)s2)nnc1-c1ccoc1C | inconclusive: -14.5
76 | CCc1c(C)nc2ncnn2c1NCCc1ccc(OC)cc1 | inactive: -9.27
77 | CN1CCCc2cc3c(C(F)(F)F)cc(=O)oc3nc21 | active: 2530
78 | COc1ccc(OC)c(C(c2nnnn2C2CCCC2)N2CCN(c3ccccc3)CC2)c1 (stereo unspecified) | inactive: -15.7
79 | COC(=O)/C=c1\sc2n(c1=O)C(C)=CC(C)(C)N=2 | inactive: -12
80 | COCC(C)NC(=O)NC1(C(F)(F)F)Oc2ccc(Cl)cc2O1 (stereo unspecified) | inconclusive: -18.4
81 | O=C(Nc1ccc(N2CCOCC2)cc1)Nc1ccc2nc(-c3ccco3)c(-c3ccco3)nc2c1 | inactive: -1.57
82 | Cc1cc2cc(CCNC(=O)c3ccc(Br)o3)c(=O)[nH]c2cc1C | inactive: -14.7
83 | CCOC(=O)Cc1cnc(NC(=O)c2ccccc2)s1 | inactive: -17.3
84 | COc1ccc(CNC(=O)CSc2ncnc3nc[nH]c23)cc1 | inconclusive: -14.9
85 | CCC(C)[C@H](NC(=O)NCC1CCCO1)C(=O)OC (stereo partly specified) | inactive: -1.9
86 | Cc1ccc(C)c(N2CCN(C(=O)c3ccc(CS(=O)(=O)c4ccccc4C)o3)CC2)c1 | inactive: -18.7
87 | Cc1cccn2c(=O)c3cc(C#N)c(=NC(=O)c4ccncc4)n(CCCOC(C)C)c3nc12 | active: 587
88 | COc1ccccc1NC(=O)CSc1nnc(Cn2nnc(-c3ccccc3)n2)n1-c1ccccc1 | inconclusive: -19.5
89 | O=C(CN1CCOCC1)NCCNC(=O)CN1CCOCC1 | inconclusive: -27.9
90 | O=C(OCCNC(=O)c1ccc2ccccc2n1)c1cccnc1 | inconclusive: -19.8
91 | COc1ccc(CCn2c(-c3ccco3)nc3ccccc3c2=O)cc1OC | inconclusive: -23.3

Single values from the list.
Under fluorescence change (max-min), Cc1cccn2c(=O)c3cc(C#N)c(=NC(=O)c4ccncc4)n(CCCOC(C)C)c3nc12 reads active: 587
Under fluorescence change (max-min), O=C(CN1CCOCC1)NCCNC(=O)CN1CCOCC1 reads inconclusive: -27.9
